Test results reported in the supplement of paper PMC9578143, “Small-Molecule Ebselen Binds to YTHDF Proteins Interfering with the Recognition of N^6-Methyladenosine-Modified RNAs” (ACS Pharmacology & Translational Science, 2022).
This is one part of the list. Part of the spread comes from offsets between plates or batches.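 Hits were defined as a z-score below −3.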

What follows are compounds tested against T1, YTHDF1 YTH domain (aa 365-554) (UniProt Q9BYJ9) (assay: tryptophan fluorescence intensity z-score (mean); higher = higher fluorescence, less quenching (negative = binding / quenching)). Details: 10 µM.
T1 sequence (whole entry): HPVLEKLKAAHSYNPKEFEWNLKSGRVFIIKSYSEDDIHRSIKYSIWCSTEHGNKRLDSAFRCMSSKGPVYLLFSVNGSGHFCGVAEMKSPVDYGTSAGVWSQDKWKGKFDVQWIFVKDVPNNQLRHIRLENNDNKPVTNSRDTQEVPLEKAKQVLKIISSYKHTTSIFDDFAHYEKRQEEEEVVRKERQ

Tryptophan fluorescence intensity z-score, inactive:
CC(=O)OC1CCC23CC1(C)CCC2C(C)(C)CC3OC(C)=O (configuration not stated) (plate: M 21-22) 0.243, CC(C)CCC[C@@H](C)[C@H]1CC[C@H]2[C@@H]3CC=C4CC(=O)CC[C@]4(C)[C@H]3CC[C@]12C (plate: M 23-24) 0.543, Cc1ncc([N+](=O)[O-])n1CCO (plate: M 3-4) -0.443, CCN(CC)CC#CCOC(=O)C(O)(c1ccccc1)C1CCCCC1 (configuration not stated) (plate: M 11-12) -0.657, OC(CCN1CCCCC1)(c1ccccc1)C1CC2C=CC1C2 (configuration not stated) (plate: M 11-12) -0.419, CCN(Cc1ccncc1)C(=O)C(CO)c1ccccc1 (configuration not stated) (plate: M 5-6) 0.587, COc1ccc2cc(CCC(C)=O)ccc2c1 (plate: M 9-10) 0.0636, O=C(O)CCC(=O)OC[C@@H](NC(=O)C(Cl)Cl)[C@H](O)c1ccc([N+](=O)[O-])cc1 (plate: M 1-2) 0.559, CCCCCC(C)N (configuration not stated) (plate: M 5-6) -0.0199, C[C@H]1[C@@H](O)O[C@@H]2O[C@@]3(C)CC[C@H]4[C@H](C)CC[C@@H]1[C@@]24OO3 (plate: M 21-22) 0.491, COc1ccc(-c2oc3c(CC=C(C)C)c(O[C@@H]4O[C@H](CO)[C@@H](O)[C@H](O)[C@H]4O)cc(O)c3c(=O)c2O[C@@H]2O[C@@H](C)[C@H](O)[C@@H](O)[C@H]2O)cc1 (plate: M 19-20) -0.0139, CCn1cc(C(=O)O)c(=O)c2ccc(C)nc21 (plate: M 5-6) 0.164, C#CCN(C)Cc1ccccc1 (plate: M 3-4) -0.173, CC(=O)O[C@H]1CC[C@@]2(C)[C@H](CC[C@@H]3[C@@H]2CC[C@]2(C)[C@@H]4[C@H](C[C@@H]32)O[C@]2(CC[C@@H](C)CO2)[C@H]4C)C1 (plate: M 13-14) 0.581, Oc1c(I)cc(I)c2cccnc12 (plate: M 3-4) -0.157, CCN(CC)CCNC(=O)c1cc(S(C)(=O)=O)ccc1OC (plate: M 7-8) 0.169, O=C(CCCN1CC=C(n2c(=O)[nH]c3ccccc32)CC1)c1ccc(F)cc1 (plate: M 7-8) 0.114, CC(=O)Oc1ccc2c(c1C(C)C)CCC1C(C)(C)CCC[C@]21C (some centres not stated) (plate: M 13-14) 0.708, NCCS(=O)(=O)O (plate: M 11-12) -0.533, COc1cc2nc(N3CCN(C(=O)c4ccco4)CC3)nc(N)c2cc1OC (plate: M 5-6) -0.0588, CCn1cc(C(=O)O)c(=O)c2cnc(N3CCNCC3)nc21 (plate: M 23-24) 0.196, Nc1nc(=O)c2[nH]c(=O)cnc2[nH]1 (plate: M 17-18) 0.129, O=c1cc(-c2ccccc2)oc2cc(O)c(O)cc12 (plate: M 17-18) 0.334, Cc1ccc(S(=O)(=O)NC(=O)NN2CC3CCCC3C2)cc1 (configuration not stated) (plate: M 23-24) 0.502, O=c1c(O)cccc2cc(O)c(O)c(O)c12 (plate: M 15-16) 0.22, COc1ccc(-c2cc(=O)c3c(O)cc(O)cc3o2)cc1 (plate: M 15-16) 0.277, CC(=O)N[C@@H](CC(=O)N[C@@H](CCC(=O)O)C(=O)O)C(=O)O (plate: M 23-24) 0.173, COc1ccc([C@H]2COc3c(ccc(O)c3OC)C2)c(OC)c1O (plate: M 15-16) 0.334, COc1ccc2c(c1)OCc1c-2oc2cc(OC)ccc12 (plate: M 15-16) -0.0035, CN(C)CCN(Cc1cccs1)c1ccccn1 (plate: M 7-8) 0.251, NC(=O)N1c2ccccc2C=Cc2ccccc21 (plate: M 1-2) 0.18, CCOc1cccc(C(=O)c2ccc(O)c(O)c2O)c1 (plate: M 15-16) -0.177, O=c1cc(-c2ccc(O)cc2)oc2cc(O)cc(O)c12 (plate: M 15-16) -0.024, CC(=O)OCC(COC(C)=O)OC(C)=O (plate: M 5-6) -0.271, O=C(Cn1ccnc1[N+](=O)[O-])NCCO (plate: M 13-14) 0.217, COc1cc2ccc(=O)oc2c(OC)c1OC (plate: M 13-14) 0.3, COc1ccc(-c2cc(=O)c3c(O)cc(O)cc3o2)cc1O (plate: M 19-20) 0.335, CC(C)NCC(O)COc1ccc(COCCOC(C)C)cc1 (configuration not stated) (plate: M 11-12) -0.334, O=C1CN2Cc3c(ccc(Cl)c3Cl)N=C2N1 (plate: M 11-12) -0.295, C#CCCCCCCCCCCCC(O)CC(O)CO (configuration not stated) (plate: M 21-22) -0.321, CC[C@H]1OC(=O)[C@H](C)[C@@H](O[C@H]2C[C@@](C)(OC)[C@@H](O)[C@H](C)O2)[C@H](C)[C@@H](O[C@@H]2O[C@H](C)C[C@H](N(C)C)[C@H]2O)[C@](C)(O)C[C@@H](C)/C(=N\OCOCCOC)[C@H](C)[C@@H](O)[C@]1(C)O (plate: M 13-14) 0.776, COc1c2ccoc2nc2c(OC)c(OCC(O)C(C)(C)O)ccc12 (configuration not stated) (plate: M 19-20) 0.295, O=C([O-])[C@H]1/C(=C/CO)O[C@@H]2CC(=O)N21.[Li+] (plate: M 9-10) -0.109, Nc1nc(=O)c2nc(CNc3ccc(C(=O)N[C@@H](CCC(=O)O)C(=O)O)cc3)cnc2[nH]1 (plate: M 7-8) -0.216, C=CC[S+]([O-])C[C@H](N)C(=O)O (mixture of isomers) (plate: M 19-20) 0.743, CC(=O)N[C@@H](CC(C)C)C(=O)O (plate: M 21-22) 0.93, CC(C)CCC[C@@H](C)[C@H]1CC[C@H]2[C@@H]3CC[C@H]4C[C@H](O)CC[C@]4(C)[C@H]3CC[C@]12C (plate: M 23-24) 0.344
